Data taken from the supplement of paper PMC6078165.

Tested on: BT20
Assay: relative JC-1 red fluorescence (viability) vs pre-drug, coculture with fibroblast (fraction); higher = more viable cancer cells
Experimental: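 JC-1 labelled TNBC cells cocultured 1:1 (1,500 cells each) with CellTrace Violet stained primary or stromal fibroblasts in 384-well plates in FluoroBrite medium, treated with one of 42 anticancer drugs at 0.1, 1, 10 or 100 uM. JC-1 red fluorescence (mitochondrial integrity in cancer cells only) was read by plate reader every 8 h for 72 h. Values are normalised to each well's pre-drug value. The stock of one drug was tenfold lower, so its dose labels may be too high.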

CN(Cc1cnc2nc(N)nc(N)c2n1)c1ccc(C(=O)N[C@@H](CCC(=O)O)C(=O)O)cc1 [Methotrexate]
relative JC-1 red fluorescence
Settings	8 h	16 h	24 h	32 h	40 h	48 h	56 h	64 h	72 h
0.1 µM, coculture fibroblast: C12385	0.9125	0.822	0.78	0.716	0.661	0.639	0.622	0.611	0.601
0.1 µM, coculture fibroblast: H6013	0.939	0.8766	0.858	0.824	0.791	0.781	0.793	0.789	0.777
0.1 µM, coculture fibroblast: H6019	0.8549	0.766	0.747	0.688	0.6442	0.6286	0.5998	0.5833	0.5746
0.1 µM, coculture fibroblast: H6076	0.858	0.897	0.829	0.7883	0.755	0.729	0.727	0.726	0.714
0.1 µM, coculture fibroblast: H6231	0.877	0.945	0.818	0.742	0.691	0.648	0.608	0.588	0.56
0.1 µM, coculture fibroblast: HADF	0.787	0.956	0.8796	0.856	0.869	0.864	0.8275	0.844	0.848
0.1 µM, coculture fibroblast: HCFa	0.828	0.923	0.913	0.871	0.846	0.828	0.819	0.748	0.691
0.1 µM, coculture fibroblast: HCPF	0.916	0.856	0.782	0.736	0.702	0.664	0.6278	0.6195	0.592
0.1 µM, coculture fibroblast: HHSteC	0.934	0.863	0.844	0.776	0.747	0.718	0.688	0.668	0.642
0.1 µM, coculture fibroblast: HMF	0.955	0.861	0.762	0.703	0.656	0.616	0.593	0.564	0.549
0.1 µM, coculture fibroblast: HPFa	0.833	0.912	0.884	0.84	0.848	0.83	0.803	0.791	0.757
0.1 µM, coculture fibroblast: HUF	0.941	0.84	0.802	0.718	0.661	0.615	0.591	0.571	0.553
0.1 µM, coculture fibroblast: Hs5	0.916	0.919	0.857	0.813	0.775	0.743	0.715	0.688	0.675
0.1 µM, coculture fibroblast: Hs27A	0.86	0.86	0.905	0.89	0.862	0.84	0.842	0.84	0.824
0.1 µM, coculture fibroblast: Hs343T	0.947	0.857	0.763	0.701	0.652	0.607	0.563	0.5545	0.5271
0.1 µM, coculture fibroblast: WS1	0.888	0.836	0.79	0.731	0.67	0.634	0.608	0.583	0.58
1 µM, coculture fibroblast: C12385	0.9216	0.78	0.735	0.663	0.604	0.576	0.556	0.543	0.537
1 µM, coculture fibroblast: H6013	0.9305	0.829	0.805	0.757	0.726	0.713	0.72	0.714	0.707
1 µM, coculture fibroblast: H6019	0.875	0.794	0.797	0.751	0.715	0.701	0.669	0.6552	0.647
1 µM, coculture fibroblast: H6076	0.897	0.829	0.752	0.72	0.694	0.6776	0.6813	0.682	0.679
1 µM, coculture fibroblast: H6231	0.8298	0.933	0.773	0.701	0.65	0.599	0.567	0.537	0.505
1 µM, coculture fibroblast: HADF	0.97	0.89	0.861	0.816	0.802	0.783	0.778	0.78	0.779
1 µM, coculture fibroblast: HCFa	0.905	0.807	0.765	0.703	0.663	0.6429	0.618	0.6	0.567
1 µM, coculture fibroblast: HCPF	0.87	0.858	0.7855	0.726	0.692	0.65	0.617	0.6	0.577
1 µM, coculture fibroblast: HHSteC	0.909	0.826	0.804	0.728	0.688	0.656	0.648	0.626	0.609
1 µM, coculture fibroblast: HMF	0.974	0.839	0.736	0.667	0.622	0.568	0.542	0.5173	0.487
1 µM, coculture fibroblast: HPFa	0.958	0.8647	0.8885	0.819	0.809	0.778	0.769	0.765	0.759
1 µM, coculture fibroblast: HUF	0.9196	0.816	0.7912	0.719	0.671	0.631	0.604	0.591	0.581
1 µM, coculture fibroblast: Hs5	0.835	0.864	0.8119	0.7732	0.739	0.705	0.678	0.659	0.642
1 µM, coculture fibroblast: Hs27A	0.742	0.896	0.778	0.901	0.814	0.862	0.854	0.747	0.73
1 µM, coculture fibroblast: Hs343T	0.963	0.834	0.74	0.67	0.623	0.577	0.534	0.522	0.496
1 µM, coculture fibroblast: WS1	0.9	0.776	0.796	0.7457	0.7029	0.6849	0.674	0.658	0.668

The reference is the same well before dosing, and untreated signal decays as well.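 Labels refer to human fibroblasts, largely primary: uterine (C12385, HUF), lung (H6013), bone (Hs27A), adrenal (HADF), skin (WS1), plus mammary HMF and breast cancer-associated Hs343T. Cancer lines are basal-like or mesenchymal-like triple-negative breast cancer. The paper counts as hits responses shifting over 3x the replicate standard deviation. The tissue of the other fibroblasts is not given here.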
